Test results reported in PMC6137146, “A small molecule targeting myoferlin exerts promising anti-tumor effects on breast cancer” (Nature Communications, 2018).
No constants are given. Whether binding was seen depends on the method and setting. In cells and extracts the contact can be indirect. Some binding calls cover weakened binding; strength is not graded here. Blank lines part the entries; values can stand above or below the substance they belong to.

Chains of the proteins cited; added tags and fusions are not shown.
UniProt Q9NZM1: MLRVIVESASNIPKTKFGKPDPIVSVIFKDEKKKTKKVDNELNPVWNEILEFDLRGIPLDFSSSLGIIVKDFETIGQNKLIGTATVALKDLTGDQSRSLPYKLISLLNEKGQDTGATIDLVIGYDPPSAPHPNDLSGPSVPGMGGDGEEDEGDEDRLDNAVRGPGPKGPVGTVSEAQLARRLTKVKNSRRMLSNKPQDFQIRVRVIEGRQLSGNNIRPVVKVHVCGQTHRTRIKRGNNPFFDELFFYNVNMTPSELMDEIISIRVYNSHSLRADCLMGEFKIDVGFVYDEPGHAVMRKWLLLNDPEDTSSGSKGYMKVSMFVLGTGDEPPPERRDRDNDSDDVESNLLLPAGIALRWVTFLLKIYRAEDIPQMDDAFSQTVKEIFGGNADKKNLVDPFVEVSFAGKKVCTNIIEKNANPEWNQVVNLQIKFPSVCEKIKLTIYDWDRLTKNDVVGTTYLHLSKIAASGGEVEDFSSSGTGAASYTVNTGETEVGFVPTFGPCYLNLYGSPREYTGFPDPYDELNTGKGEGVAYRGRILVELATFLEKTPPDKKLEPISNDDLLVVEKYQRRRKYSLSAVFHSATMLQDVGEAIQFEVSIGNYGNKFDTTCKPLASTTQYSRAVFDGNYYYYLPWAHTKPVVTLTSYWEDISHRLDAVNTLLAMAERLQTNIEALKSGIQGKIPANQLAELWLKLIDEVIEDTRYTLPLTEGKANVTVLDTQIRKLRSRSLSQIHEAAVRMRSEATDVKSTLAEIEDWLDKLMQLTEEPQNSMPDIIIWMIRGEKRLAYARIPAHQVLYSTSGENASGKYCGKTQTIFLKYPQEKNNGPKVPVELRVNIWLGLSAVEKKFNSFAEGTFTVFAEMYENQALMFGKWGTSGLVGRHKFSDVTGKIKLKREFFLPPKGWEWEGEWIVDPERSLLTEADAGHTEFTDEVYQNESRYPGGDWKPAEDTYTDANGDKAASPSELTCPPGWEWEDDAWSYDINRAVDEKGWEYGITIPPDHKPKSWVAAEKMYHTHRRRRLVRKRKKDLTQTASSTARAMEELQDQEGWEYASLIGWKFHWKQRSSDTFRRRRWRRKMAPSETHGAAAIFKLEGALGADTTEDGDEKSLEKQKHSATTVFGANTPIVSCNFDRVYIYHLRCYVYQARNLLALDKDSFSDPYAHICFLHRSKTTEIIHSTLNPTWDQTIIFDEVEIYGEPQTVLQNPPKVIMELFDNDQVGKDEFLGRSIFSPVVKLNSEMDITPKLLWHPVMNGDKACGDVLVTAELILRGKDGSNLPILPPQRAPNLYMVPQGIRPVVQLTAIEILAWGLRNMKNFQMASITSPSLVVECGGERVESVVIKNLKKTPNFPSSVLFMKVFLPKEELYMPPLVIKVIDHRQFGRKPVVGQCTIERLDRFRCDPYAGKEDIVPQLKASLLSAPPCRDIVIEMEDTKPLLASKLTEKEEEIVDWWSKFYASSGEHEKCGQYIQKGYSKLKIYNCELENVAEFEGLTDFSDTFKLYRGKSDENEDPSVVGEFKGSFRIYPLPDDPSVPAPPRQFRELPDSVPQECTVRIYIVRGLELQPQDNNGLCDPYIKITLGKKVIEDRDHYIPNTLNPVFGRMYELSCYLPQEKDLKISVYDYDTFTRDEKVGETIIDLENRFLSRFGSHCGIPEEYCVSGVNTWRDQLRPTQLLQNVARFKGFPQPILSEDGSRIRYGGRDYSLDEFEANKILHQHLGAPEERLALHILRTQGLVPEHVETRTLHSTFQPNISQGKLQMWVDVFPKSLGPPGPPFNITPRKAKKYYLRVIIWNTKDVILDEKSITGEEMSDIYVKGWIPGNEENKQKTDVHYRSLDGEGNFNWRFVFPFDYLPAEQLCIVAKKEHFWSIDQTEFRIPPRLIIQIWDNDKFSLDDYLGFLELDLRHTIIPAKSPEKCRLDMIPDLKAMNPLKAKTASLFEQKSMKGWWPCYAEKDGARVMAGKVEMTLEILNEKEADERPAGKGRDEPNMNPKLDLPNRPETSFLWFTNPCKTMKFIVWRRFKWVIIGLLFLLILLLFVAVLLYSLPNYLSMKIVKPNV
UniProt P51149: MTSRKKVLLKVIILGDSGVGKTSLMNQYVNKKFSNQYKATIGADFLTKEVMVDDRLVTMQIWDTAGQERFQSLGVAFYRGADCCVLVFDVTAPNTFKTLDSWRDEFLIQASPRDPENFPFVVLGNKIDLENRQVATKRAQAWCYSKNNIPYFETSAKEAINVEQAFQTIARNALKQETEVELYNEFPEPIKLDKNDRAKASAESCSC

Assays:
[1] = target: HA-MYOF (hemagglutinin-tagged myoferlin) (human) (UniProt Q9NZM1); test: co-IP; HA-MYOF and Flag-Rab7 co-transfected in 293T cells; reciprocal immunoprecipitation with anti-HA affinity gel; cells untreated or exposed to WJ460 (50, 100, 200 nM)
Flag-Rab7 = Flag-Rab7 (UniProt P51149); test: co-IP; HA-MYOF and Flag-Rab7 co-transfected in 293T cells; immunoprecipitation with anti-Flag M2 affinity gel; cells untreated or exposed to WJ460 (50, 100, 200 nM)
[2] = target: Rab7, endogenous in MDA-MB-231 cells (human (endogenous in MDA-MB-231)) (UniProt P51149); test: co-IP; endogenous proteins of MDA-MB-231 cells; immunoprecipitation with anti-Rab7 antibody; cells untreated or treated with WJ460 (50, 100, 200 nM)

binding [1]: binds
Substance: Flag-Rab7 (from UniProt P51149 1-207)

binding (Flag-Rab7): binds
Substance: HA-MYOF (hemagglutinin-tagged myoferlin) (from UniProt Q9NZM1 1-2061)

binding [2]: binds
Substance: myoferlin (MYOF), endogenous in MDA-MB-231 cells (from UniProt Q9NZM1 1-2061)
